Measurements published in the supplement of paper PMC10849652.
Some of the results follow.

Chains of the proteins cited; added tags and fusions are not shown. Lines headed by an entry give the natural chain unless they say otherwise; changes in a name come on top.
UniProt Q9BZL1: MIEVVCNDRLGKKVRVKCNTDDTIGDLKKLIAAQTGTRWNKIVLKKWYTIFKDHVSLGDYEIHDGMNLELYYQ
UniProt A6NNZ2, whole entry, looked up: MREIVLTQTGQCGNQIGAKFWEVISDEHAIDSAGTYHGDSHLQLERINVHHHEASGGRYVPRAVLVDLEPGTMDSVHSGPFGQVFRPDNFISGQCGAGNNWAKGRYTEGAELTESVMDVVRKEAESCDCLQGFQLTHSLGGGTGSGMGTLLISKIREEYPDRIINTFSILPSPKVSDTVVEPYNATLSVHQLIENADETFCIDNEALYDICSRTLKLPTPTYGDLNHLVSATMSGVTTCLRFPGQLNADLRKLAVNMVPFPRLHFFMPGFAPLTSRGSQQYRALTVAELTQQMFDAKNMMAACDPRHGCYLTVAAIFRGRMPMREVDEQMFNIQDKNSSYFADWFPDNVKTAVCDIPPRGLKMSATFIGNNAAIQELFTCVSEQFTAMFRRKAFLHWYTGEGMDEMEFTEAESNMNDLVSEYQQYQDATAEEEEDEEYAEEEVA
UniProt Q5T4S7, whole entry, looked up: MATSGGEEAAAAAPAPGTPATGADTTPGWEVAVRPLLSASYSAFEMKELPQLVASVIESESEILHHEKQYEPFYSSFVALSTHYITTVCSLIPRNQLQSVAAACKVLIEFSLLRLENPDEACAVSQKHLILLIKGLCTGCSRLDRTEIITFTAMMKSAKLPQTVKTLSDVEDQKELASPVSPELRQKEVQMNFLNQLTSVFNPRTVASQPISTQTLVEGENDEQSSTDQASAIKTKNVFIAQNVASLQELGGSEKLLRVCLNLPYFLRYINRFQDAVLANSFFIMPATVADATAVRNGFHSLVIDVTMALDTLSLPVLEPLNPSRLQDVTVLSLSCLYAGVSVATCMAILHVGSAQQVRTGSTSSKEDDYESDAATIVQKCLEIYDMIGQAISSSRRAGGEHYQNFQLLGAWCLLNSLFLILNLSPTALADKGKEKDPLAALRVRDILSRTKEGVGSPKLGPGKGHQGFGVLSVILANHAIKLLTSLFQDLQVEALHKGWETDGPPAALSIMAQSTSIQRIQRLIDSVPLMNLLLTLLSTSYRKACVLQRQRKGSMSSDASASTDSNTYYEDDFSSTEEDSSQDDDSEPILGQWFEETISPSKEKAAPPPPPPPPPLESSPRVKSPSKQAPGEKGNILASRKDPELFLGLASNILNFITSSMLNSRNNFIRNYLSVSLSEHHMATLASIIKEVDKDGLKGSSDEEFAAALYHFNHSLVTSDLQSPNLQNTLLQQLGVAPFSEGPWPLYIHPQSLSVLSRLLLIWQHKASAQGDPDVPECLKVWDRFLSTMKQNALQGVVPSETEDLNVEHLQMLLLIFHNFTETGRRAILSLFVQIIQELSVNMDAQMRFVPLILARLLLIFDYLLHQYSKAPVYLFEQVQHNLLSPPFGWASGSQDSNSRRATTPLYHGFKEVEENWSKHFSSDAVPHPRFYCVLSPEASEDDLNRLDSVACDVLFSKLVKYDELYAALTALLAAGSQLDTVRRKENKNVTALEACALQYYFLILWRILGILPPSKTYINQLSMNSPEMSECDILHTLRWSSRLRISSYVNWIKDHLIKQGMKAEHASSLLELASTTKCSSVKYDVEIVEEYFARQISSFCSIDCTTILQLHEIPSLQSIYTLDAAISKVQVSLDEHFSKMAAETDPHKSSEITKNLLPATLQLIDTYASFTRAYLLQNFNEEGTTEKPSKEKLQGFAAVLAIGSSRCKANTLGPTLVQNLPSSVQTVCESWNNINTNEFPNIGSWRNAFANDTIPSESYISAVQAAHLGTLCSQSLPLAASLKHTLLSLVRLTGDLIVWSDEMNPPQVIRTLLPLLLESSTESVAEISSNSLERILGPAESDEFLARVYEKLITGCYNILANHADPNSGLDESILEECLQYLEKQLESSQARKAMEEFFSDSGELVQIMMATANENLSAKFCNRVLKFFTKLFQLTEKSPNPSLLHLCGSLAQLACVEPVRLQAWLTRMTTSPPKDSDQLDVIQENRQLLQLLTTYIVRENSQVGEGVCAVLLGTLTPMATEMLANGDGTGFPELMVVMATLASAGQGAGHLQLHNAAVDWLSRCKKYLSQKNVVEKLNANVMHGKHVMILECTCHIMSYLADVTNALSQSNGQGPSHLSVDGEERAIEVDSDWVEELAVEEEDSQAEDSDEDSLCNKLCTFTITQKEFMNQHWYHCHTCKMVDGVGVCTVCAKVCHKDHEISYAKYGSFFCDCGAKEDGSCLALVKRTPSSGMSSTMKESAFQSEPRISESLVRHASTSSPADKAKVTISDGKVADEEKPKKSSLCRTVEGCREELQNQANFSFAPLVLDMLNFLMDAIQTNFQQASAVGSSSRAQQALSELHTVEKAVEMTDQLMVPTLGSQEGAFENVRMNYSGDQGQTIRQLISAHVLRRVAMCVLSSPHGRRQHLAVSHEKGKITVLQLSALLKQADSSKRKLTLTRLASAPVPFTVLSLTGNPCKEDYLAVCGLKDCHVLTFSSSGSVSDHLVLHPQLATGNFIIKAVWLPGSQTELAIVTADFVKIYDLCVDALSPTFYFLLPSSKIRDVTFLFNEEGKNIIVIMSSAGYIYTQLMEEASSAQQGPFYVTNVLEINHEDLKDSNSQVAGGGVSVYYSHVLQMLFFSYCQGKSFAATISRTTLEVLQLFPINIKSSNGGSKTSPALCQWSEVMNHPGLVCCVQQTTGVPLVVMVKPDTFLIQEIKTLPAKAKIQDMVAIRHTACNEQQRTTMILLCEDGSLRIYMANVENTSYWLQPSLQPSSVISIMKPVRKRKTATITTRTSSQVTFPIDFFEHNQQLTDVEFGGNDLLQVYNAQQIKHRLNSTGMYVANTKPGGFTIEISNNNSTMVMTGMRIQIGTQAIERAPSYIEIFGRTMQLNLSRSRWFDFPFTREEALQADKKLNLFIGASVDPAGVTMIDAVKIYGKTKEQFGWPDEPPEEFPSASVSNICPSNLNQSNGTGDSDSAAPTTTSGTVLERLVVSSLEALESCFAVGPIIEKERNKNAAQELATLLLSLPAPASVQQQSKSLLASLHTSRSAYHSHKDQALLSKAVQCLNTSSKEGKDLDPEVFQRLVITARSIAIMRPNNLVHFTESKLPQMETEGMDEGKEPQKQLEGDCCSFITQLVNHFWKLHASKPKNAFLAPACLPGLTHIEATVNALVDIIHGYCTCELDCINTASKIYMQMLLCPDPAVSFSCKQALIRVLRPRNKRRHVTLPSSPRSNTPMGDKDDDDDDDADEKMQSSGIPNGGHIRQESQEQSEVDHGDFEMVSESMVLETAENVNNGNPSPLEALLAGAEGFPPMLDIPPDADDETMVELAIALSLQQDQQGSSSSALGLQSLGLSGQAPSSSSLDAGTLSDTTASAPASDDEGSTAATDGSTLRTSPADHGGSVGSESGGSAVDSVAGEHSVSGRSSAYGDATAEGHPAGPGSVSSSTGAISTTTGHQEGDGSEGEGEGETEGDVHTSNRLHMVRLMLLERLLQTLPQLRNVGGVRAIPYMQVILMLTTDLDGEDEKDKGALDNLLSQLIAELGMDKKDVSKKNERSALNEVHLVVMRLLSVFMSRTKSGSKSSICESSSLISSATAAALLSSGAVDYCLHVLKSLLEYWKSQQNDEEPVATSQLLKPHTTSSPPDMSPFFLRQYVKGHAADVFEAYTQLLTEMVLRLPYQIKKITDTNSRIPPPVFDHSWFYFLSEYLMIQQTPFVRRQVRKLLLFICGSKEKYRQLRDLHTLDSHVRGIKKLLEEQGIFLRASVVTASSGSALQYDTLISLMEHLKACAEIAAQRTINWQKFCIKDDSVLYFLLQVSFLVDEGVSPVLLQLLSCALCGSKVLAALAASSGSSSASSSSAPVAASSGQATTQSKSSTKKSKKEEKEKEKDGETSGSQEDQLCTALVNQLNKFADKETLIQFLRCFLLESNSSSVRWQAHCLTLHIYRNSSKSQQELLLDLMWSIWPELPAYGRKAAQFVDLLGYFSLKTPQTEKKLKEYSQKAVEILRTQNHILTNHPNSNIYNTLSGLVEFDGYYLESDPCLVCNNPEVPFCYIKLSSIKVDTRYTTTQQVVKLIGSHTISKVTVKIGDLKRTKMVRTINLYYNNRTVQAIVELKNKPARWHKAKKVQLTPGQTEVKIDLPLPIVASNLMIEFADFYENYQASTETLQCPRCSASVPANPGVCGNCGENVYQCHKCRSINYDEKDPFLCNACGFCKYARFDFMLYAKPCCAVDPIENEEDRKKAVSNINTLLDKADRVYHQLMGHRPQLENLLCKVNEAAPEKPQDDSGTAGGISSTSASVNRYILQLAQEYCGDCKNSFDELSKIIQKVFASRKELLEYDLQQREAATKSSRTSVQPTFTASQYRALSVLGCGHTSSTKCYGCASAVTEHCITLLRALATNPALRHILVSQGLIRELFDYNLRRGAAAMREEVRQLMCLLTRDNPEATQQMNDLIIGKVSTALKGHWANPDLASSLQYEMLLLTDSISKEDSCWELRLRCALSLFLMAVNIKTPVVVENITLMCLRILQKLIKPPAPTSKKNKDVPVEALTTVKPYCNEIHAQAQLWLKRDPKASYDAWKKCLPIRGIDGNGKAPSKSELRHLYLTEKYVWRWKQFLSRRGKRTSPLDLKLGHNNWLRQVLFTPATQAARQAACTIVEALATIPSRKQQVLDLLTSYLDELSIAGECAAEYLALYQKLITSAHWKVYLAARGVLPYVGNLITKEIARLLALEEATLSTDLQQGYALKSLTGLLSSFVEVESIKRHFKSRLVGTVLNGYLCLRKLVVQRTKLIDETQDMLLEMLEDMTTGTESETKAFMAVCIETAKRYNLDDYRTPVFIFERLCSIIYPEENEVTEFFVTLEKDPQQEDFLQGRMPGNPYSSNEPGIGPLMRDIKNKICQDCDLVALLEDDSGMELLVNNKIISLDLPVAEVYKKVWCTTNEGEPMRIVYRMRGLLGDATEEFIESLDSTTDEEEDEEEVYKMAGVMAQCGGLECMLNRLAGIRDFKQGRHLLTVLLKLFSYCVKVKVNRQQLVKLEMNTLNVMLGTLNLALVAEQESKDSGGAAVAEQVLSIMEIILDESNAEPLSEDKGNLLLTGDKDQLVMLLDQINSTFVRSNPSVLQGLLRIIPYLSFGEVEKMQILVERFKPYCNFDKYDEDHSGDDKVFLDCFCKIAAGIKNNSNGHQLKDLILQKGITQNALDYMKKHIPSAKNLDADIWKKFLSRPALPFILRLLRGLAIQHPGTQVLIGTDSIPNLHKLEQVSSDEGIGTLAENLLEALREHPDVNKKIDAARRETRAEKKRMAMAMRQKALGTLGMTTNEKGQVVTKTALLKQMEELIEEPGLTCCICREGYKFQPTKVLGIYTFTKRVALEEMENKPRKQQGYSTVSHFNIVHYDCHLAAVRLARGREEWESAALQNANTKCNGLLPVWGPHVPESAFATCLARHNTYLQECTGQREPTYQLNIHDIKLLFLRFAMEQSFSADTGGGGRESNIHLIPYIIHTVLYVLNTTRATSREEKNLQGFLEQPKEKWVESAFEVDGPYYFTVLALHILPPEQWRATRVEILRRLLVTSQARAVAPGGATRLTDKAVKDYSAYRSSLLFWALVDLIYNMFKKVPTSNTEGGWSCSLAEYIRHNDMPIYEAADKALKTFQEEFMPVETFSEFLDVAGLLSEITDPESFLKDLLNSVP
UniProt Q9Y5Z9: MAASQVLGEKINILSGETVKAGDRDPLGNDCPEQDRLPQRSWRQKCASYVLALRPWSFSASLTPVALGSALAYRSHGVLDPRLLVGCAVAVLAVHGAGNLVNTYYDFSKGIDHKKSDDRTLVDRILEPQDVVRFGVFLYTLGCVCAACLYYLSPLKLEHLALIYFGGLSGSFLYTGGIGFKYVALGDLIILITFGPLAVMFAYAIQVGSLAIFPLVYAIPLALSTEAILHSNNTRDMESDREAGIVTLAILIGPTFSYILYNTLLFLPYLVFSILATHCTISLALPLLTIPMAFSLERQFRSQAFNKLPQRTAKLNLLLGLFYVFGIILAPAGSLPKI
UniProt O94941: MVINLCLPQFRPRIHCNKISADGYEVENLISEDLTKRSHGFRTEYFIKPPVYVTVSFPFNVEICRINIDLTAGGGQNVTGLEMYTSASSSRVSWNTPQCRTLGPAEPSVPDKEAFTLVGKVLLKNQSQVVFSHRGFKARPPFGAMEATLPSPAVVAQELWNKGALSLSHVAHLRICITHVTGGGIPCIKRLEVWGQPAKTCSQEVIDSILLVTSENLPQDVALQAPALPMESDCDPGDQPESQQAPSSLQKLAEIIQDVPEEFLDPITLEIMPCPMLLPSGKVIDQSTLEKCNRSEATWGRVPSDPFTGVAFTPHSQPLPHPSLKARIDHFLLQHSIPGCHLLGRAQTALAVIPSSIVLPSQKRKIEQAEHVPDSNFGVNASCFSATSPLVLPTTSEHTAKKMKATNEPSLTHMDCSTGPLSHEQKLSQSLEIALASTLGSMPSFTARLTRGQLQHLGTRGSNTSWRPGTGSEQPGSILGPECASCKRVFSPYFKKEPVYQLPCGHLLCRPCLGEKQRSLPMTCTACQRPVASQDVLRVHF

Tests used:
Assay in all cases: log2 fold change, soluble protein after heating vs DMSO (PISA); higher = thermal stabilisation; K562 lysate, 10 uM; active = over 0.2 and 3.5 SD of the protein, either way, in both replicates (recomputed)
[1] = compound: C1=CC=C(C=C1)[C@H](COC2=CC3=C(C=C2)NC(=O)N3)NC(=O)C4=CC=CN(C4=O)CC5=CC(=C(C=C5)F)F
Summary of the method: (§1)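 Log-two fold change in thermal stability relative to solvent controls is reported from duplicates. For each sample, crude K562 extract from dounce-homogenised pellets in PBS pH 7.4 with 1 mM MgCl2, at 1 mg/mL protein, was treated with 10 μM compound for 30 min. Aliquots heated for 3 min across 48°C-58°C were pooled, brought to 0.5% NP-40 at 4°C and cleared at 21,000xg for 90 min. The supernatant was quantified by TMTpro 16plex LC-MS/MS with channel sums equalised.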

[2] = compound: CC1=C(SC2=C1C(=N[C@H](C3=NN=C(N32)C)CC(=O)N)C4=CC=C(C=C4)Cl)C
Summary of the method: as §1

[3] = compound: CC1=C2C(=CC=C1)N=C(N(C2=O)C3=CC=CC=C3C)CN4C=NC5=C(N=CN=C54)N
Summary of the method: as §1

[4] = compound: Cc1sc2c(c1C)C(c1ccc(Cl)cc1)=N[C@@H](CC(=O)OC(C)(C)C)c1nnc(C)n1-2
Summary of the method: as §1

[5] = compound: c1ccc([C@@H]2C[C@H]2NC2CCNCC2)cc1
Summary of the method: as §1

Measured: log2 fold change

TYMS (UniProt P04818)
inactive: [1] -0.005 | [2] 0.02 | [3] -0.005 | [4] 0.012 | [5] 0.014

UBE2E3 (UniProt Q969T4)
inactive: [1] 0.012 | [2] 0.001 | [3] 0.001 | [4] 0.002 | [5] -0.028

TXNRD2 (UniProt Q9NNW7)
inactive: [1] 0.023 | [2] -0.015 | [3] -0.048 | [4] -0.042 | [5] 0.006

UBE2A (UniProt P49459)
inactive: [1] -0.011 | [2] 0.086 | [3] -0.043 | [4] -0.031 | [5] 0.099

UBL5 (UniProt Q9BZL1)
inactive: [1] 0.063 | [2] 0.008 | [3] -0.06 | [4] 0.005 | [5] -0.167

Taken from the listing (two entries):
TYMS (UniProt P04818)
inactive: [1] -0.005 | [2] 0.02 | [3] -0.005 | [4] 0.012 | [5] 0.014

UBE2E3 (UniProt Q969T4)
inactive: [1] 0.012 | [2] 0.001 | [3] 0.001 | [4] 0.002 | [5] -0.028

Remaining list, next part:

UBE2R2 (UniProt Q712K3)
inactive: [1] -0.031 | [2] -0.015 | [3] 0.031 | [4] 0.012 | [5] 0.034

TUT7 (UniProt Q5VYS8)
inactive: [1] -0.032 | [2] 0.003 | [3] 0.05 | [4] -0.055 | [5] 0.128

UBAP2L isoform 5 (UniProt Q14157)
inactive: [1] -0.047 | [2] 0.049 | [3] -0.022 | [4] 0.029 | [5] -0.004

TUBB8B (UniProt A6NNZ2)
inactive: [1] -0.024 | [2] 0.093 | [3] -0.038 | [4] 0.032 | [5] -0.059

UAP1 (UniProt Q16222)
inactive: [1] 0.013 | [2] 0.028 | [3] -0.003 | [4] 0.026 | [5] 0.016

UBE2T (UniProt Q9NPD8)
inactive: [1] -0.014 | [2] 0.063 | [3] 0.02 | [4] 0.015 | [5] 0.034

TUT1 (UniProt Q9H6E5)
inactive: [1] -0.029 | [2] 0.013 | [3] 0.012 | [4] 0.098 | [5] -0.019

UBQLN1 isoform 2 (UniProt Q9UMX0)
inactive: [3] 0.086 | [4] 0.028

UBE2O (UniProt K7ES11)
inactive: [5] 0.46

UBR4 isoform 4 (UniProt Q5T4S7)
inactive: [3] -0.023 | [4] -0.284

UBE2K (UniProt D6RDM7)
inactive: [3] 0.052

UBIAD1 (UniProt Q9Y5Z9)
inactive: [3] -0.025 | [4] -0.048 | [5] 0.025

U2AF1L5 (UniProt P0DN76)
inactive: [4] 0.002 | [5] -0.499

U2SURP isoform 2 (UniProt O15042)
inactive: [3] -0.024 | [4] -0.03

TXNDC11 (UniProt Q6PKC3)
inactive: [1] 0.018 | [2] -0.021 | [4] 0.051 | [5] -0.03

TUBA4A (UniProt C9JQ00)
inactive: [1] -0.111 | [2] -0.225 | [5] 0.056

TYRO3 (UniProt Q06418)
inactive: [1] 0.032 | [2] 0.01 | [3] 0.394 | [5] 0.13

UBAP2L (UniProt F8W726)
inactive: [3] -0.018

UBE2M (UniProt M0QX69)
inactive: [5] -0.088

TXNDC2 (UniProt Q86VQ3)
inactive: [1] 0.021 | [2] -0.06 | [5] -0.01

UBOX5 (UniProt O94941)
inactive: [4] 0.119 | [5] -0.202

UBE2L5, A0A1B0GUS4
inactive: [5] 0.018

UBA7 (UniProt P41226)
inactive: [5] -0.068

TUBB2B (UniProt Q9BVA1)
inactive: [1] 0.022 | [2] 0.026 | [4] 0.122 | [5] 0.02

TXNDC9 isoform 2 (UniProt O14530)
inactive: [4] -0.041

TVP23C (UniProt Q96ET8)
inactive: [5] -0.214

U2AF2 (UniProt K7ELP8)
inactive: [3] 0.061 | [5] 0.136

TULP3 isoform 2 (UniProt O75386)
inactive: [3] -0.034 | [4] 0.032

TUBB4A (UniProt P04350)
inactive: [1] 0.015 | [2] -0.03 | [4] 0.044 | [5] 0.044
